Assay results from article PMC5931534.
These are yes or no findings as the source states them, for the method shown. For part of these data: In cells and extracts the contact can be indirect. Some binding calls cover weakened binding; strength is not graded here.

The chains behind the UniProt entries cited, without tags or fusion partners. Where a name states a change or a piece, a line headed by the entry shows the natural chain unless it says otherwise.
UniProt Q9UIK4: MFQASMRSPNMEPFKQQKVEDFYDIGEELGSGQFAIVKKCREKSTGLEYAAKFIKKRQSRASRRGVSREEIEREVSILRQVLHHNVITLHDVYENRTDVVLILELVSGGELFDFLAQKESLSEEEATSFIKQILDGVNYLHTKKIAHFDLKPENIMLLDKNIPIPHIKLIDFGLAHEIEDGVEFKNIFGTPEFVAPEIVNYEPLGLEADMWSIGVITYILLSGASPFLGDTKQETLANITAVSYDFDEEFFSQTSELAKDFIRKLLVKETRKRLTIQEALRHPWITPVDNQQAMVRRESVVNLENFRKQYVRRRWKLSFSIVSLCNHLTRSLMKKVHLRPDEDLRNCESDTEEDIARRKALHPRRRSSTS
UniProt Q6ZNE5: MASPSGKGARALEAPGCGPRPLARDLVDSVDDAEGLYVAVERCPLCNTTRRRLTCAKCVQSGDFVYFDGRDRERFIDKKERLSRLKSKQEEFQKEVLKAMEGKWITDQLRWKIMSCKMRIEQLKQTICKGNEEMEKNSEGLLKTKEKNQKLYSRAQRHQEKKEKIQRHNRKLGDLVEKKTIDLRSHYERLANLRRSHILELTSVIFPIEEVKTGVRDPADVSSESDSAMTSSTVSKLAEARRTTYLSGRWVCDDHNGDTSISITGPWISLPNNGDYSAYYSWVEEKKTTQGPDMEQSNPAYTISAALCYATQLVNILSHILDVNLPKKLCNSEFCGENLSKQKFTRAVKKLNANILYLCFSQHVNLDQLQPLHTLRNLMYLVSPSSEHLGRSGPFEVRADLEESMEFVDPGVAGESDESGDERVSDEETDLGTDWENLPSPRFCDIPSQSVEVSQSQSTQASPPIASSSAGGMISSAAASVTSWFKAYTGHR

Legend:
[1] = molecular target: L1 and L2-fused DAPK2 WT (human (cDNA library from HEK293 cells)) (UniProt Q9UIK4); assay: split reporter; Protein Complementation Assay: Gaussia luciferase fragments L1 (amino acids 1-93) and L2 (94-169) fused to the two proteins, transfected in pairs into HEK293T cells; cells lysed and luminescence measured
Atg14-HA = Atg14-HA (UniProt Q6ZNE5); assay: co-IP; HEK293T cells transfected with Atg14-HA (or empty vector) and FLAG-DAPK2; anti-HA immunoprecipitates resolved by SDS-PAGE and blotted
FLAG-DAPK2 WT = FLAG-DAPK2 WT (UniProt Q9UIK4); assay: SDS-resistant dimer band on SDS-PAGE; FLAG-DAPK2 overexpressed in HEK293T cells; anti-FLAG immunoprecipitate stained with GelCode Blue, or lysate blotted with anti-FLAG; dimer band around 90 kDa

| Substance | binding [1] | binding (Atg14-HA) | binding (FLAG-DAPK2 WT) |
| --- | --- | --- | --- |
| L1 and L2-fused DAPK2 WT (from UniProt Q9UIK4-1 1-370) (enzyme) | binds | – | – |
| FLAG-DAPK2 WT (from UniProt Q9UIK4-1 1-370) (enzyme) | – | binds | binds |
